# Reference: patent publication US20240358861A1, “COMPOSITIONS AND METHODS OF FLUORESCEIN SODIUM FOR EARLY DIAGNOSIS OF CERVICAL CANCER” (THE MOEIN FAMILY TRUST, priority 2023, published 2024)
# For at least one compound, name, drawing or mass did not settle the structure.
# Experiments:
# [1] = tested on: cervix (cervical lesions); experiment: Colposcopy with AA then FNa staining, histopathology (biopsy) as reference diagnosis; format: in vivo, human
# Experimental: The FNa formulation is applied in 3 steps, each using either a cotton swab or plastic pipette for delivery and continuing until all solution is dispensed: a) Pre-rinse with 10 mL of normal saline to remove cervical mucus. b) Apply 10 mL of a FNa delivery solution over the cervix. Solution in the posterior cul-de-sac is picked up with the pipette and resprayed, at least once, then discarded. c) after imaging or diagnosis, post-rinse with 10 mL of normal saline.
# cervical lesions (CIN) = experiment: Lesion grade stained, shown by p16, Ki67 and c-myc FISH staining of specimens; parameters: species or system human
# tumor cells = conditions: reference (53); cited from earlier work
smiles,measurement,setting,value
"O=C1OC2(c3ccc(O)cc3Oc3cc(O)ccc32)c2ccccc21 [FNa, Fluorescein (3′,6′-dihydrospiro[isobenzofuran-1(3H),9′-[9H]xanthene]-3-one) sodium]",More false negatives than the other stain,"[1]; FNa versus AA, patients with low grade SIL per histopathology",three
same,"Cases with cytology and AA positive, FNa negative, pathology only low grade",[1]; in vivo,four
same,Missed high grade lesions,[1]; in vivo,Neither AA nor FNa missed any high grade lesions
same,Lesion grades stained,cervical lesions (CIN),stains only high grade CIN 2 and worse
same,Tumor uptake versus surrounding tissue,tumor cells,23 fold
